The other results are listed elsewhere or left out.
Legend:
Assay in all cases: log2 fold change, soluble protein after heating vs DMSO (PISA); higher = thermal stabilisation; K562 cells, 10 uM, 30 min; active = over 0.2 and 3.5 SD of the protein, either way, in both replicates (recomputed)
[1] = compound: C1=CC=C(C=C1)[C@H](COC2=CC3=C(C=C2)NC(=O)N3)NC(=O)C4=CC=CN(C4=O)CC5=CC(=C(C=C5)F)F
In short: (§1)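 Quantification of soluble protein used TMTpro 16plex LC-MS/MS, with channel sums equalised. Samples were the supernatant after 21,000xg for 90 min of pooled aliquots from K562 cells (2×10^6 cells/mL) treated with 10 μM compound for 30 min, heated for 3 min over 48°C-58°C, and extracted in PBS with 0.5% NP-40 at 4°C. Values, from duplicates, describe thermal stability against control samples on a log2 fold-change scale.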

Amino acid sequences for entries named in this document (tags omitted). A change or cut given only in a name is not applied to a line headed by its entry.
UniProt Q14103: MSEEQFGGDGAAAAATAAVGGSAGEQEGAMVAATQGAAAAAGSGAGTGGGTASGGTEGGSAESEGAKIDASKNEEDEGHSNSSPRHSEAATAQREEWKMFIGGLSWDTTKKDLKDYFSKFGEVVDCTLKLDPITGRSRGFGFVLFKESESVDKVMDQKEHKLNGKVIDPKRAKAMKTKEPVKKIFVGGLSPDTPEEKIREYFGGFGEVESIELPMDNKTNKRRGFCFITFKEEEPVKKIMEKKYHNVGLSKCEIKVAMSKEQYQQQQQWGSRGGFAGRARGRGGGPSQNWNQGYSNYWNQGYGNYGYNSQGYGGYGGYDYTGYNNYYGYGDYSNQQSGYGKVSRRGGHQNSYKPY
UniProt Q01581: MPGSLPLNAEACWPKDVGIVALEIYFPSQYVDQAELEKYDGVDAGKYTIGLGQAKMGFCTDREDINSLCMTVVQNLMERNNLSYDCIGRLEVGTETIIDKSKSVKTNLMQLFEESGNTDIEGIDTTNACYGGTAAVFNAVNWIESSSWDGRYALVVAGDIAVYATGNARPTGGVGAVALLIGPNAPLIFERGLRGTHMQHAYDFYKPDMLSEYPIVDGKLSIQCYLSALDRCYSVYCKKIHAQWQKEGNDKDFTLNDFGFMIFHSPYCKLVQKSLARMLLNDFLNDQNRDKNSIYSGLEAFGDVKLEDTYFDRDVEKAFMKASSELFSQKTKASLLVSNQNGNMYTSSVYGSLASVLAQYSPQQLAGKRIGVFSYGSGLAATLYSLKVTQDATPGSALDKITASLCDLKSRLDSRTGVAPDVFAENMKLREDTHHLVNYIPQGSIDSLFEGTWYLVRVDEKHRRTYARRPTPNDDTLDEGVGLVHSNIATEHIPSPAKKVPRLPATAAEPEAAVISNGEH
UniProt Q9Y4L1: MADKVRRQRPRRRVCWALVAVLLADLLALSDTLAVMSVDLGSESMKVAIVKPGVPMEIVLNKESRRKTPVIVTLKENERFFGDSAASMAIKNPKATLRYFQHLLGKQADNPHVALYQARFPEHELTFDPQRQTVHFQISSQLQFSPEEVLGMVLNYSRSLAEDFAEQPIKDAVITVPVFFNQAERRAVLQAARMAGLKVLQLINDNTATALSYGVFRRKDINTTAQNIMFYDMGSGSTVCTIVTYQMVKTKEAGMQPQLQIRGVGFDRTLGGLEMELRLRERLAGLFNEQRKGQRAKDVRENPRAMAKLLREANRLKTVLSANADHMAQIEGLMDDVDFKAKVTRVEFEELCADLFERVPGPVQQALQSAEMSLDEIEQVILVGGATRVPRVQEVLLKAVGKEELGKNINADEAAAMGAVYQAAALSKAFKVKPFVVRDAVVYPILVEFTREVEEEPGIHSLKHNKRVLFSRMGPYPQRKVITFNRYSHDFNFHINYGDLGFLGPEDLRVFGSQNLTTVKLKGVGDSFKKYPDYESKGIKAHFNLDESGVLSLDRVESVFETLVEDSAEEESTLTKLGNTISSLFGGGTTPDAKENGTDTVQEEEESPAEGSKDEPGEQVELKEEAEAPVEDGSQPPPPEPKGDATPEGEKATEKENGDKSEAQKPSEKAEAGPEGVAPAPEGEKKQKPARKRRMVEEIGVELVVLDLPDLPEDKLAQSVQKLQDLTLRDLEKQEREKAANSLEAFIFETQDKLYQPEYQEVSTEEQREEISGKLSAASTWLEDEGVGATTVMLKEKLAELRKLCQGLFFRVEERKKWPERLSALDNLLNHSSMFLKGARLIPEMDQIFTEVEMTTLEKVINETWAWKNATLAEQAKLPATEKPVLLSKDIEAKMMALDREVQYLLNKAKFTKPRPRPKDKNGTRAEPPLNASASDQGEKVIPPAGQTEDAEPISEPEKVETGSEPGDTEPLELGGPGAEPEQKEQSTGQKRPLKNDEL
UniProt P82970: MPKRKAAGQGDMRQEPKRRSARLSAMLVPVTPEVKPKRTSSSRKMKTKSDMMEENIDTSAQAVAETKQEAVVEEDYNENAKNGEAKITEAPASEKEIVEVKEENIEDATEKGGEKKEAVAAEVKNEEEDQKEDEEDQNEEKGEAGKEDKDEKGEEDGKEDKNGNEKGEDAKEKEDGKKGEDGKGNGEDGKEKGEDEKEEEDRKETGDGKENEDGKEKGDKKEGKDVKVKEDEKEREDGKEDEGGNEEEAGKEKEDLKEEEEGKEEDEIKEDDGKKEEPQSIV
UniProt P05114: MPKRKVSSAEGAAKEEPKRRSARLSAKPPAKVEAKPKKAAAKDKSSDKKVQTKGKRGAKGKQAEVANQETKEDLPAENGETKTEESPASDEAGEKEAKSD
UniProt O15347: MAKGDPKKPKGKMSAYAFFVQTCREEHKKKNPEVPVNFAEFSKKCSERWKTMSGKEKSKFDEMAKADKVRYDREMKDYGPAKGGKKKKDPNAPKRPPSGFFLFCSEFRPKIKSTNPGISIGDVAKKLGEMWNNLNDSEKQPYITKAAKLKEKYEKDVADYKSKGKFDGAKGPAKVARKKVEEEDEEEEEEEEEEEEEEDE
UniProt P49773: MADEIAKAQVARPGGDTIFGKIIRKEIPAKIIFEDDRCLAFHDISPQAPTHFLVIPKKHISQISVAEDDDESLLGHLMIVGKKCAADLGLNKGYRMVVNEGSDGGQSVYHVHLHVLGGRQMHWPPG
UniProt Q03014: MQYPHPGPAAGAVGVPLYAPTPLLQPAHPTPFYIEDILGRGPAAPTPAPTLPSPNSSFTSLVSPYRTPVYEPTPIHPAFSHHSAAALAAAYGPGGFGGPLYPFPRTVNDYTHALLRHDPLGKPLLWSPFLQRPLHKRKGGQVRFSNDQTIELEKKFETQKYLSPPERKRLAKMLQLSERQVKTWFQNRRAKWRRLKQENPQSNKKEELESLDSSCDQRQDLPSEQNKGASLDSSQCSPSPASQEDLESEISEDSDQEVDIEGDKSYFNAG
UniProt Q99714: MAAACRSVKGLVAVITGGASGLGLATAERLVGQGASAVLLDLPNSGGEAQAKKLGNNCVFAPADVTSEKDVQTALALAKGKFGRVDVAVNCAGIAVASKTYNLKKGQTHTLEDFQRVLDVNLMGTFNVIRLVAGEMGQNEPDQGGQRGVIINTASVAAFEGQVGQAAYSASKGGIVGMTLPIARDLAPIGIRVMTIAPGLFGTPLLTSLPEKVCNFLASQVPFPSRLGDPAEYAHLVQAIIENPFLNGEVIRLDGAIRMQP
UniProt P31937: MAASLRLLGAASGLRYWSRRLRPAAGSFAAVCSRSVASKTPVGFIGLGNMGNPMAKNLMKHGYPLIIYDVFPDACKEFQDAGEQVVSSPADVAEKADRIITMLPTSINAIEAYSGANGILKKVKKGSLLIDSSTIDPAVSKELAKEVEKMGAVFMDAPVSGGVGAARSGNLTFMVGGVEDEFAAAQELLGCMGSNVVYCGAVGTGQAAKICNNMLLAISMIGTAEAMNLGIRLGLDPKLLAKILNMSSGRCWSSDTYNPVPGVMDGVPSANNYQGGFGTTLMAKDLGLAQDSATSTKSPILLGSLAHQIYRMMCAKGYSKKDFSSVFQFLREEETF
UniProt P38646: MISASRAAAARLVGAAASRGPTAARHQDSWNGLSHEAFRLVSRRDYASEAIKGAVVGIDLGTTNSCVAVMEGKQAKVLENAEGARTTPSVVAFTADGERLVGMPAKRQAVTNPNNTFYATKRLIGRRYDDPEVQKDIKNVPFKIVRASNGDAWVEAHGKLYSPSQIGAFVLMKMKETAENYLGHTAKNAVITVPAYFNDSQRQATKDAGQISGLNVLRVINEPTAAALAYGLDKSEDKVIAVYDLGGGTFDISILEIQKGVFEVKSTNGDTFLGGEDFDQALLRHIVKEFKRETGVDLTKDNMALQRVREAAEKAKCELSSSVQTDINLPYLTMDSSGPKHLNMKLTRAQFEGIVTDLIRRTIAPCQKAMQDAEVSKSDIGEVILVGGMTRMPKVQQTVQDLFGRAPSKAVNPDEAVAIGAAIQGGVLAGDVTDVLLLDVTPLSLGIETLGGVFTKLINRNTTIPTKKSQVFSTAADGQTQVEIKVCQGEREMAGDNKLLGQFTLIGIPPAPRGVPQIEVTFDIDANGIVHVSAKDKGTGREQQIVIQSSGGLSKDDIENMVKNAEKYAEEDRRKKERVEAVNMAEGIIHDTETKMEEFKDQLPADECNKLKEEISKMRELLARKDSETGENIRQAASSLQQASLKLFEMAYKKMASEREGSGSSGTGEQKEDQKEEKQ
UniProt P52597: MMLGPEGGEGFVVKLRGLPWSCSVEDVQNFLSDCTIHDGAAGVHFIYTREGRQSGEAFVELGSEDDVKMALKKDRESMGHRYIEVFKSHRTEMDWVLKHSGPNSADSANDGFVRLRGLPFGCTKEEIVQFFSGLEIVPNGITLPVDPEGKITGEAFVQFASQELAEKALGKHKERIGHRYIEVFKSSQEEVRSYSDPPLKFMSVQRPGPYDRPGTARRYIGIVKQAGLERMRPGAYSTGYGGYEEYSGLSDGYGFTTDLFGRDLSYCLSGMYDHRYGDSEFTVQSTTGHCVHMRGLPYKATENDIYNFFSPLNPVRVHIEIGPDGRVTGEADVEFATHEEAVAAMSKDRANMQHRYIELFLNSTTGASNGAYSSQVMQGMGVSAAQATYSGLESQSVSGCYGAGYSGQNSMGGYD
UniProt O75330: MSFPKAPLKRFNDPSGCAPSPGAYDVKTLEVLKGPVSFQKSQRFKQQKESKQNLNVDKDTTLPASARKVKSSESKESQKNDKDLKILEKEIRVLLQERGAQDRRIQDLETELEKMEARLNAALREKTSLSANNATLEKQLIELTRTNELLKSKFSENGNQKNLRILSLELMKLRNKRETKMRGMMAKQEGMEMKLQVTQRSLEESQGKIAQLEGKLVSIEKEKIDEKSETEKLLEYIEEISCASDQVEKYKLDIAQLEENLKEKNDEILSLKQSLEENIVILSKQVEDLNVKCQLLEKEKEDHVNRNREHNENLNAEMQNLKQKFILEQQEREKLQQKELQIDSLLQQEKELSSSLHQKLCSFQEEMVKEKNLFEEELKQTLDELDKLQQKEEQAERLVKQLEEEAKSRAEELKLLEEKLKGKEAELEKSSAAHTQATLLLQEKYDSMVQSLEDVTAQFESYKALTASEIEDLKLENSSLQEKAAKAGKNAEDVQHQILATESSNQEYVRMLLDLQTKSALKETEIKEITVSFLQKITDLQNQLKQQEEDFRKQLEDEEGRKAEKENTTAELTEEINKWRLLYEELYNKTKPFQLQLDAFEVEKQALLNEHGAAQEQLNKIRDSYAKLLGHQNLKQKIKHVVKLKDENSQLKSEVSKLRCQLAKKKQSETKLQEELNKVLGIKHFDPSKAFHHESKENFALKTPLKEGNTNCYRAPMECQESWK
UniProt Q9NSE4: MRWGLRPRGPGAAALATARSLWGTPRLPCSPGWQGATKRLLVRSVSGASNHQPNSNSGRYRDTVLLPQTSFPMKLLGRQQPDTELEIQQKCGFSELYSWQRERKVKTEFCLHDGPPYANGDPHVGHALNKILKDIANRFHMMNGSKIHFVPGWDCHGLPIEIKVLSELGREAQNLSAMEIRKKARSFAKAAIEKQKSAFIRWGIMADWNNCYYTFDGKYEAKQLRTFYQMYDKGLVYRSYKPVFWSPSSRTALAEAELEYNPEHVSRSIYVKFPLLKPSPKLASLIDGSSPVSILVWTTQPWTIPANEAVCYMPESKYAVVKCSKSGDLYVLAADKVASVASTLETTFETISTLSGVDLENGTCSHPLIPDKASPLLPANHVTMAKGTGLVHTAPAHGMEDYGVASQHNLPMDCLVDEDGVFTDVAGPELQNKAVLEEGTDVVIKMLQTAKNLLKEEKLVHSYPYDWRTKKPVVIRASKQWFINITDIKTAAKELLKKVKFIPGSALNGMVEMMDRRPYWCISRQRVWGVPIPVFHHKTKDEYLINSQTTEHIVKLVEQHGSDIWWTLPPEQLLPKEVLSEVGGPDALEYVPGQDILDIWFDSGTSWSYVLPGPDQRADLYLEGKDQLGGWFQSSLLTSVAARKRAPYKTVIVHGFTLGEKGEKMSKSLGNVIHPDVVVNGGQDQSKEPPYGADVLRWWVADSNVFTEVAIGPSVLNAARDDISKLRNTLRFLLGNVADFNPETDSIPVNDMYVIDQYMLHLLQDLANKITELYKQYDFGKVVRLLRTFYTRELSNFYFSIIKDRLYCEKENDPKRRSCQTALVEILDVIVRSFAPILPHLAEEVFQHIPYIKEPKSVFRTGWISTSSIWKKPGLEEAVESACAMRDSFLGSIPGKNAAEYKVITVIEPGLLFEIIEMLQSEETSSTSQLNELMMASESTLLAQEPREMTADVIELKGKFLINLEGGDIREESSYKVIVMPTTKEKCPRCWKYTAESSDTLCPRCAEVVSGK
UniProt P30519: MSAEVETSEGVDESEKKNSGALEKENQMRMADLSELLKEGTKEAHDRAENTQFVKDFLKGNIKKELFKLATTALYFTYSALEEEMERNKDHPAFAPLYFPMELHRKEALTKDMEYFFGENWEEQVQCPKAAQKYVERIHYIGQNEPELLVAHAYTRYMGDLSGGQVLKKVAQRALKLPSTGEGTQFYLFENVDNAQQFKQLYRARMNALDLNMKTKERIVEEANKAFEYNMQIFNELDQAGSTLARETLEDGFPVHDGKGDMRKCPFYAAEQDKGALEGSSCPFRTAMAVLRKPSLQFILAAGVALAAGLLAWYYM

[2] = compound: CC1=C(SC2=C1C(=N[C@H](C3=NN=C(N32)C)CC(=O)N)C4=CC=C(C=C4)Cl)C
In short: as §1

[3] = compound: CC1=C2C(=CC=C1)N=C(N(C2=O)C3=CC=CC=C3C)CN4C=NC5=C(N=CN=C54)N
In short: as §1

[4] = compound: Cc1sc2c(c1C)C(c1ccc(Cl)cc1)=N[C@@H](CC(=O)OC(C)(C)C)c1nnc(C)n1-2
In short: as §1

[5] = compound: c1ccc([C@@H]2C[C@H]2NC2CCNCC2)cc1
In short: as §1

Measured: log2 fold change

HSPA1L (UniProt P34931)
inactive: [1] -0.013 | [2] -0.081 | [3] 0.219 | [4] -0.189 | [5] 0.079

HNRNPD (UniProt Q14103)
inactive: [1] 0.032 | [2] -0.13 | [3] -0.068 | [4] 0.129 | [5] 0.022

HMGN4 (UniProt O00479)
inactive: [1] 0.065 | [2] -0.041 | [3] -0.362 | [4] 0.012 | [5] -0.112

ICAM4 (UniProt Q14773)
inactive: [1] -0.009 | [2] 0.019 | [3] 0.023 | [4] -0.102 | [5] -0.034

HMGCS1 (UniProt Q01581)
inactive: [1] 0.029 | [2] -0.007 | [3] 0.006 | [4] -0.004 | [5] 0.023

HYOU1 (UniProt Q9Y4L1)
inactive: [1] 0.031 | [2] -0.032 | [3] -0.011 | [4] -0.014 | [5] -0.02

HM13 (UniProt Q8TCT9)
inactive: [1] 0.028 | [2] 0.108 | [3] 0.005 | [4] -0.065 | [5] 0.017

HNRNPU (UniProt Q00839)
inactive: [1] -0.014 | [2] -0.155 | [3] -0.103 | [4] 0.088 | [5] 0.021

HMGN5 (UniProt P82970)
inactive: [1] 0.026 | [2] 0 | [3] 0.007 | [4] -0.111 | [5] 0.036

HSD17B7 (UniProt P56937)
inactive: [1] -0.037 | [2] 0.126 | [3] 0.027 | [4] -0.039 | [5] 0.001

HMGN1 (UniProt P05114)
inactive: [1] 0.042 | [2] -0.023 | [3] -0.119 | [4] 0.027 | [5] 0.048

ICAM5 (UniProt Q9UMF0)
inactive: [1] -0.071 | [2] -0.094 | [3] 0.085 | [4] -0.103 | [5] 0.05

HNRNPR isoform 2 (UniProt O43390)
inactive: [1] 0.073 | [2] -0.205 | [3] -0.105 | [4] 0.122 | [5] 0.022

HSPA8 (UniProt E9PK54)
inactive: [1] 0.004 | [2] -0.108 | [3] 0.037 | [4] 0.099 | [5] -0.001

HTATSF1 (UniProt O43719)
inactive: [1] -0.149 | [2] 0.031 | [3] 0.105 | [4] 0.01 | [5] 0.029

HSPA5 (UniProt P11021)
inactive: [1] -0.037 | [2] -0.004 | [3] -0.027 | [4] -0.003 | [5] 0.013

HGS (UniProt O14964)
inactive: [1] -0.019 | [2] 0.063 | [3] 0.087 | [4] -0.032 | [5] -0.02

HMBS (UniProt P08397)
inactive: [1] 0.003 | [2] 0.005 | [3] -0.026 | [4] -0.017 | [5] 0.012

HMGB3 (UniProt O15347)
inactive: [1] -0.005 | [2] 0.022 | [3] -0.03 | [4] -0.055 | [5] -0.033

HSPA4L (UniProt O95757)
inactive: [1] -0.009 | [2] 0.028 | [3] 0.034 | [4] 0 | [5] -0.004

HINT1 (UniProt P49773)
inactive: [1] -0.041 | [2] 0.062 | [3] -0.011 | [4] -0.082 | [5] 0.018

HMG20A (UniProt Q9NP66)
active: [5] 0.536
inactive: [1] 0.07 | [2] -0.085 | [3] 0.048 | [4] 0.048

HHEX (UniProt Q03014)
inactive: [1] 0.054 | [2] 0.187 | [3] 0.469 | [4] 0.026 | [5] 0.516

HIKESHI (UniProt Q53FT3)
inactive: [1] 0.014 | [2] 0.12 | [3] 0.149 | [4] -0.091 | [5] -0.027

HIC2 (UniProt Q96JB3)
inactive: [1] 0.163 | [2] -0.053 | [3] -0.048 | [4] 0.205 | [5] 0.078

HSD17B10 (UniProt Q99714)
inactive: [1] -0.021 | [2] 0.043 | [3] -0.017 | [4] -0.012 | [5] -0.025

Quoted at random: 4 entries already listed.
HMBS (UniProt P08397)
inactive: [1] 0.003 | [2] 0.005 | [3] -0.026 | [4] -0.017 | [5] 0.012

HIKESHI (UniProt Q53FT3)
inactive: [1] 0.014 | [2] 0.12 | [3] 0.149 | [4] -0.091 | [5] -0.027

ICAM5 (UniProt Q9UMF0)
inactive: [1] -0.071 | [2] -0.094 | [3] 0.085 | [4] -0.103 | [5] 0.05

HMGB3 (UniProt O15347)
inactive: [1] -0.005 | [2] 0.022 | [3] -0.03 | [4] -0.055 | [5] -0.033

(continued)

HIST2H2AA3 (UniProt Q6FI13)
inactive: [1] 0.193 | [2] -0.246 | [3] -0.473 | [4] -0.027 | [5] 0.286

HIBADH (UniProt P31937)
inactive: [1] 0.033 | [2] 0.002 | [3] 0.016 | [4] 0.007 | [5] 0.008

HIP1R (UniProt O75146)
inactive: [1] -0.038 | [2] 0.061 | [3] 0.1 | [4] -0.031 | [5] -0.02

HSPA4 (UniProt P34932)
inactive: [1] -0.019 | [2] 0.047 | [3] 0.005 | [4] -0.012 | [5] 0.002

HSPA8 (UniProt P11142)
inactive: [1] -0.019 | [2] -0.032 | [3] -0.02 | [4] 0.005 | [5] -0.008

HNRNPH2 (UniProt P55795)
inactive: [1] -0.096 | [2] -0.037 | [3] 0.097 | [4] -0.035 | [5] -0.003

HPS1 (UniProt Q92902)
inactive: [1] -0.021 | [2] 0.078 | [3] 0.11 | [4] -0.011 | [5] 0.065

HSPA9 (UniProt P38646)
inactive: [1] 0.012 | [2] 0.017 | [3] 0 | [4] -0.008 | [5] 0.023

HSPA1A (UniProt P0DMV8)
inactive: [1] -0.031 | [2] -0.029 | [3] -0.058 | [4] 0.004 | [5] -0.007

HMGCL (UniProt P35914)
inactive: [1] -0.029 | [2] 0.04 | [3] -0.08 | [4] -0.005 | [5] -0.035

HNRNPF (UniProt P52597)
inactive: [1] -0.032 | [2] -0.049 | [3] -0.019 | [4] -0.02 | [5] -0.017

HSPE1 (UniProt P61604)
inactive: [1] 0.036 | [2] 0.092 | [3] 0.076 | [4] -0.099 | [5] -0.02

HSPA8 (UniProt E9PN89)
inactive: [1] 0 | [2] 0.094 | [3] 0.123 | [4] 0.133 | [5] 0.104

HMMR isoform 3 (UniProt O75330)
inactive: [1] -0.063 | [2] 0.04 | [3] 0.056 | [4] 0.002 | [5] -0.047

IARS2 (UniProt Q9NSE4)
inactive: [1] 0.019 | [2] -0.017 | [3] -0.002 | [4] -0.002 | [5] 0.03

HIST2H3A (UniProt Q71DI3)
inactive: [1] 0.068 | [2] -0.153 | [3] -0.266 | [4] -0.221 | [5] 0.192

HMOX2 (UniProt P30519)
inactive: [1] 0.024 | [2] 0.035 | [3] 0.169 | [4] 0.047 | [5] -0.036

HMGA1 (UniProt P17096)
inactive: [1] 0.06 | [2] -0.041 | [3] -0.092 | [4] 0.102 | [5] 0.097

IDE (UniProt P14735)
inactive: [1] -0.069 | [2] 0.034 | [3] 0.068 | [4] -0.006 | [5] -0.044

HMGN2 (UniProt P05204)
inactive: [1] -0.099 | [2] -0.056 | [3] -0.033 | [4] 0.021 | [5] 0.07

HSD17B12 (UniProt Q53GQ0)
inactive: [1] 0.013 | [2] 0.061 | [3] 0.066 | [4] 0.042 | [5] -0.008

HLCS (UniProt P50747)
inactive: [1] 0.006 | [2] 0.07 | [3] 0.159 | [4] -0.031 | [5] 0.012

ICOSLG isoform 2 (UniProt O75144)
inactive: [1] -0.078 | [3] 0.382

HIF1AN (UniProt Q9NWT6)
inactive: [1] -0.043 | [3] 0.08 | [4] 0.104

HNRNPL (UniProt P14866)
inactive: [1] -0.124 | [2] -0.22 | [4] -0.039 | [5] 0.049

HOOK1 (UniProt Q9UJC3)
inactive: [3] 0.064

HNRNPUL1 (UniProt M0R247)
inactive: [2] 0.079 | [4] 0.204 | [5] 0.122

IBTK (UniProt Q9P2D0)
inactive: [1] -0.159 | [2] -0.105 | [4] 0.182 | [5] -0.043

HOMER3 (UniProt Q9NSC5)
inactive: [2] 0.018 | [5] -0.03

HSP90AA2P (UniProt Q14568)
inactive: [4] 0.006
